# The other results are listed elsewhere or left out. These are further read-outs of the screen, such as a control signal, another cell line or another target. No call is given for them. The list favours compounds with an active or inconclusive main result. Words in brackets tell the shape of the fitted curve; partial curves, single points and poor fits give uncertain potencies.
# Experiment: qHTS Assay for Lipid Storage Modulators in Drosophila S3 Cells;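 for cell number change: cells counted by Cell Tracker Red CMTPX staining in the red channel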
# Conditions: BODIPY lipid droplet fluorescence, 18-24 h; for cell number change: measured here: cell count max response, cells fed with added oleic acid
# Outline: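 Laser-scanning cytometry quantifies lipid droplet accumulation (500–530 nm total intensity; droplet/cell object ratio) in oleic acid-fed (400 uM added) Drosophila S3 cells treated with a concentration series. 20 uM Triacsin C defined 100% inhibition.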
# [1] = measured here: cell number channel AC50, cells fed with added oleic acid
# [2] = measured here: lipid fluorescence (Fed channel) AC50, cells fed with added oleic acid
SMILES,cell number change,AC50 [1],AC50 [2]
Cn1cncc1C#Cc1c(C=O)n(C)c2ccccc12,15%,"1.16 µM [falling, single point]","1.16 µM [falling, single point]"
CCC(=O)Nc1nnc(SCC(=O)c2ccc3c(c2)Cc2ccccc2-3)s1,20.4%,,"18.4 µM [rising, single point]"
N#C/C(=C\c1ccccc1O)C(=O)Nc1ccccn1,54.1%,"2.31 µM [rising, partial curve, poor fit]","29.1 µM [rising, single point]"
c1ccc2c(-c3[nH]ncc3CNCCCn3ncc4ccccc43)cccc2c1,-37.6%,"16.4 µM [falling, single point]","18.4 µM [falling, single point]"
Oc1[nH]c2ccccc2c1N=Nc1nncc2ccccc12,-27.2%,,"5.8 µM [falling, partial curve, poor fit]"
CC(CCN1CCN=C1Nc1ccccc1)c1ccccc1 (stereo not drawn),20.4%,"0.0731 µM [rising, full curve, poor fit]",
CC(C)(C)c1ccc(OCCNC(=S)NC(=O)c2cccnc2)cc1,-5.85%,,"0.13 µM [rising, full curve, poor fit]"
CCN(CC)C(=O)C(=O)Nc1ccc(F)c(Cl)c1,-37.7%,"18.4 µM [falling, single point]",
Cc1ccccc1C(=O)Nc1cc(-c2cc(C(C)(C)C)oc2C)nn1C,-22.6%,,"9.2 µM [falling, partial curve]"
C=C(C)C1CC=C(C)/C(=N/NC(=O)COc2ccccc2Cl)C1 (stereo not drawn),27.6%,,"3.26 µM [rising, single point]"
O=C(Nc1cc(C(F)(F)F)ccc1N1CCOCC1)c1cncc(Br)c1,-5.1%,,
COc1ccc(N(CC(=O)Nc2cccc(N(C)S(C)(=O)=O)c2)S(=O)(=O)c2ccc(F)cc2)cc1,4.33%,,"6.51 µM [rising, single point]"
CC(C)(C)c1ccccc1OCCOCCN1CCCCCC1,-5.51%,,"3.16 µM [falling, partial curve]"
COc1nc2cc(C)ccc2cc1-c1noc(-c2cccnc2)n1,-12.4%,,
CCOc1nc(NC2CCCC2)nc(N2CCC(C)CC2)n1,-9.68%,,
Cc1ccc(C2(CCNS(=O)(=O)c3ccc(C)cc3)CCOC(C(C)C)C2)cc1 (stereo not drawn),-20.5%,"0.00517 µM [falling, full curve, poor fit]","5.8 µM [falling, partial curve, poor fit]"
CC1CCC(C(C)C)C2=C1C(C#N)(C#N)C(C#N)(C#N)C(c1ccccc1)N2 (stereo not drawn),-15.2%,,
COc1ccc(NC(=O)c2ccc3c(SCC(=O)O)c4c(nc3c2)CCCC4)cc1Cl,,,"0.366 µM [falling, full curve, poor fit]"
O=C(CSc1ccccn1)c1ccc2c(c1)OCO2,,"0.731 µM [rising, partial curve]","0.651 µM [rising, partial curve]"
CN=c1scc(-c2cccs2)n1/N=C/c1ccccc1O,-1.71%,,"2.06 µM [rising, partial curve]"

SMILES,cell number change,AC50 [1],AC50 [2]
CN(CC(=O)Nc1ccc(F)cc1)C(=O)COc1ccc(C(=O)c2ccccc2)cc1,15%,,"10.3 µM [rising, partial curve, poor fit]"
CCNc1nc(SCC(=O)Nc2ccccc2)nc(N2CCOCC2)n1,5.04%,,"18.4 µM [rising, single point]"
Cc1ccc2c(c1)N(CC(=O)N1CCCCCC1)C(=O)c1cccnc1O2,-0.298%,,
CC(=O)NC(CC(=O)OCC(=O)N1CCN(S(=O)(=O)c2ccc(Cl)cc2)CC1)c1ccccc1 (stereo not drawn),-14.8%,"6.51 µM [falling, single point]",
CC(NC(=O)C1CCCCC1)C(=O)NC1=NCCS1 (stereo not drawn),,,"29.1 µM [falling, single point]"
C=CCn1c(COc2cccc(C)c2)nnc1SCn1nnc2ccccc2c1=O,,"0.13 µM [rising, full curve, poor fit]",
Cc1ccccc1C(=O)NC(=S)N(C)CCc1ccccn1,58.5%,"0.731 µM [rising, full curve, poor fit]",
Cc1cccc(NC(=O)CCC2CCN(Cc3nccs3)CC2)c1,35.1%,"29.1 µM [rising, single point]",
CCCNC(=S)N1CCN(CC)CC1,13.8%,"0.116 µM [falling, full curve, poor fit]","0.0731 µM [falling, single point]"
O=c1c2ccccc2ncn1Cc1ccc(Cl)cc1,-16%,,
CC(=O)c1ccc(NC(=O)COC(=O)C2C3CC4OC(=O)C2C4C3)cc1 (stereo not drawn),9.91%,,"29.1 µM [falling, single point]"
C[C@@H](C(=O)N[C@@H](Cc1ccccc1)C(=O)O)n1nnc2ccccc2c1=O,-37.7%,"18.4 µM [falling, single point]","18.4 µM [falling, single point]"
CCN(CC)S(=O)(=O)c1ccc(N2CCOCC2)c(NC(=O)c2cc3ccccc3oc2=O)c1,23.5%,,
COC(=O)c1ccccc1NC(=S)N(Cc1ccc2c(c1)OCO2)Cc1cc2ccc(OC)cc2[nH]c1=O,-6.42%,"1.46 µM [falling, partial curve, poor fit]","0.461 µM [rising, partial curve]"
Cc1cccc(C)c1NC(=O)CSCC(=O)c1ccc(O)c(O)c1,3.14%,,"23.1 µM [falling, single point]"
O=C(C1CC(=O)N(c2ccc3c(c2)OCCO3)C1)N1CCN(Cc2ccccc2F)CC1 (stereo not drawn),34.3%,"10.3 µM [rising, partial curve, poor fit]","1.64 µM [falling, full curve]"
Cc1cc(C(=O)N/N=C/c2ccc[nH]2)no1,13.2%,,
CC1(C)S[C@@H]2[C@H](NC(=O)[C@H](N)c3ccccc3)C(=O)N2[C@H]1C(=O)OC1OC(=O)c2ccccc21 (stereo partly drawn),-16%,"1.3 µM [falling, full curve]","1.3 µM [falling, full curve]"
O=C(c1cc(S(=O)(=O)NCc2ccco2)ccc1Br)N1CCOCC1,-3.18%,,"16.4 µM [rising, single point]"
COc1ccc(C)cc1S(=O)(=O)NC(C)C(=O)NC1CC1 (stereo not drawn),3.47%,,

# An excerpt from above in order of SMILES length, rising:
SMILES,cell number change,AC50 [1],AC50 [2]
CCNc1nc(SCC(=O)Nc2ccccc2)nc(N2CCOCC2)n1,5.04%,,"18.4 µM [rising, single point]"
O=C(c1cc(S(=O)(=O)NCc2ccco2)ccc1Br)N1CCOCC1,-3.18%,,"16.4 µM [rising, single point]"
O=C(C1CC(=O)N(c2ccc3c(c2)OCCO3)C1)N1CCN(Cc2ccccc2F)CC1 (stereo not drawn),34.3%,"10.3 µM [rising, partial curve, poor fit]","1.64 µM [falling, full curve]"

# Further records

SMILES,cell number change,AC50 [1],AC50 [2]
CCCCN(C(=O)c1ccc(C)o1)c1c(N)n(CC(C)C)c(=O)[nH]c1=O,-42.8%,"13 µM [falling, partial curve]","0.092 µM [rising, full curve, poor fit]"
CCOc1cc([N+](=O)[O-])cc(/C=N/NC(=O)c2c(-c3ccccc3)noc2C)c1O,15.3%,,
CC1CCN(C(c2ccc(N(C)C)cc2)c2nnnn2Cc2ccccc2)CC1 (stereo not drawn),-0.237%,,"6.51 µM [falling, single point]"
COc1ccc(NS(=O)(=O)c2ccc(SC)cc2)c(OC)c1,-3.1%,,
CN(C)S(=O)(=O)c1ccc(NC(=O)CN2CCCc3ccccc32)cc1,26.1%,,"0.164 µM [falling, full curve, poor fit]"
S=c1nc(-c2ccccc2)n(CCCn2ccnc2)c2c1CCCC2,,,"0.58 µM [falling, single point]"
COc1ccccc1CCNC(=O)c1ccoc1C,157%,"16.4 µM [rising, partial curve]",
CN(C)C(=O)c1cn(-c2ccccc2)nc1-c1cc2ccccc2oc1=O,49.9%,"29.1 µM [rising, single point]",
O=C(c1ccccc1)c1ccc(NCCCn2ccnc2)c([N+](=O)[O-])c1,-21.1%,,"29.1 µM [falling, single point]"
COc1ccc(C(=O)c2nc3c(n2O)CCCCC3)cc1,0.0663%,,"0.13 µM [falling, full curve, poor fit]"
CCc1[nH]nc2c1C1(CCN(C(=O)OCc3ccccc3)CC1)C(C#N)=C(N)O2,-36.6%,"25.9 µM [falling, single point]",
O=C(NC1CCCc2ccccc21)c1cccc(S(=O)(=O)N2CCOCC2)c1 (stereo not drawn),18.3%,,
CN1C(=O)c2ccc(NC(=O)CSc3ccccc3)cc2C1=O,14.9%,,
COC(=O)CCCC(=O)N1CCC(CO)(CCc2ccccc2)CC1,-13%,"0.00517 µM [falling, full curve, poor fit]",
CC1CCCCN1CC(=O)Nc1ccccc1Sc1ccccc1 (stereo not drawn),-32.1%,"29.1 µM [falling, single point]","29.1 µM [falling, single point]"
Cc1ccc(N=C2SC(C(=O)Nc3ccc(OC(F)(F)F)cc3)C(N)=C2C(=O)Nc2c(C)cc(C)cc2C)cc1 (stereo not drawn),-77.3%,"7.31 µM [falling, partial curve]","5.8 µM [falling, partial curve]"
Cc1oc2c(c(C)cc3oc(=O)c(CC(=O)N[C@@H](CC(C)C)C(=O)O)c(C)c32)c1C,-2.46%,,"2.06 µM [rising, full curve, poor fit]"
CC[C@@H](C)[C@H](NC(=O)CNC(=O)Cc1c(C)c2c(cc(C)c3c(C)coc32)oc1=O)C(=O)O,,,"6.51 µM [rising, single point]"
O=C(COC(=O)C1CC2CCCC(C1)C2=O)c1cccc(Br)c1 (stereo not drawn),-8.53%,,
CCOc1ccc(NC(=O)Nc2cc(C(C)C)ccc2C)cc1,-10.9%,,"0.00461 µM [falling, full curve, poor fit]"

# From PubChem BioAssay AID2685 (National Center for Advancing Translational Sciences (NCATS), 2010)
